Experimental data: paper doi:10.1101/2025.02.28.640897
Results are given in words; binding and its absence hold for the method and conditions named. In cells and extracts the contact can be indirect. Some binding calls cover weakened binding; strength is not graded here.

The chains behind the UniProt entries cited, without tags or fusion partners. Where a name states a change or a piece, a line headed by the entry shows the natural chain unless it says otherwise. Residues count along the entry.
UniProt Q5SWA1: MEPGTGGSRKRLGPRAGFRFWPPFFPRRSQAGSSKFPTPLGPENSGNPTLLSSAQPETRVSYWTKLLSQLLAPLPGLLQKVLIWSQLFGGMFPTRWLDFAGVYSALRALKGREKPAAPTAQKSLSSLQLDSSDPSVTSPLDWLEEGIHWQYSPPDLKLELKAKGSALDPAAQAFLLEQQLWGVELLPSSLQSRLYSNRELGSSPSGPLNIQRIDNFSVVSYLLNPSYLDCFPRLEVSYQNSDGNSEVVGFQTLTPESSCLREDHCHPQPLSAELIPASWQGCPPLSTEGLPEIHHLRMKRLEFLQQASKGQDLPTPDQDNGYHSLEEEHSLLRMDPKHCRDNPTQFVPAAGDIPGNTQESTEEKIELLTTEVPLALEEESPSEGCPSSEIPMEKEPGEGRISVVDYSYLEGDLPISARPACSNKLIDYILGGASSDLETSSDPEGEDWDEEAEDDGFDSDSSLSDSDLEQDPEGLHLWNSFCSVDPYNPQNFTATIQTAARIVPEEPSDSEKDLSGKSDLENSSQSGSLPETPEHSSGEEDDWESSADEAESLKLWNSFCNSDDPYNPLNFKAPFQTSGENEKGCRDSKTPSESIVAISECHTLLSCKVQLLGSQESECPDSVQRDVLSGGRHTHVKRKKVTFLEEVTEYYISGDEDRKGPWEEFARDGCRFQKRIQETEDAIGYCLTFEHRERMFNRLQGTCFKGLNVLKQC
GFP-ΔPPP1R15B: residues 638-697 of Q5SWA1
UniProt P62136: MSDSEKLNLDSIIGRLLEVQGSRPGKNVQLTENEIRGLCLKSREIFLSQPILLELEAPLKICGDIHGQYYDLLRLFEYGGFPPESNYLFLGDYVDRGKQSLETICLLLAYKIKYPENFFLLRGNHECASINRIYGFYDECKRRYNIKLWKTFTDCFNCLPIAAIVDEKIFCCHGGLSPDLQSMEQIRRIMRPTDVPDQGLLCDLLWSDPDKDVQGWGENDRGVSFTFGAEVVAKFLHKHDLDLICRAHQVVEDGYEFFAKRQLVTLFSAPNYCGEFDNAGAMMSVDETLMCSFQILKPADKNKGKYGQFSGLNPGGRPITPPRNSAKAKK

Key:
Test in all cases: co-IP
GFP-ΔPPP1R15B = GFP-ΔPPP1R15B (UniProt Q5SWA1)
[1] = biological target: PPP1R15B^R658C (GFP-tagged) (UniProt Q5SWA1)
WT PPP1R15B (GFP-tagged) = WT PPP1R15B (GFP-tagged) (UniProt Q5SWA1)

Measured: binding

PP1 (from UniProt P62136 1-330) (enzyme)
binds: all assays above
